Test results: the supplement of paper PMC6411743
± gives the standard deviation of the averaged measurements. The entries are a selection whose mix differs from that of the whole data set.

Amino acid sequences for entries named in this document (tags omitted). A change or cut given only in a name is not applied to a line headed by its entry.
UniProt P61224: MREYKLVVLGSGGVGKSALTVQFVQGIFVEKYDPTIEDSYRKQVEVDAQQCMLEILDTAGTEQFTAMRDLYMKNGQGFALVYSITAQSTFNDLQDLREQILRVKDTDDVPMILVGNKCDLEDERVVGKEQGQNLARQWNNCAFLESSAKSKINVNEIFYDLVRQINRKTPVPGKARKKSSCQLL
UniProt P53350, whole entry: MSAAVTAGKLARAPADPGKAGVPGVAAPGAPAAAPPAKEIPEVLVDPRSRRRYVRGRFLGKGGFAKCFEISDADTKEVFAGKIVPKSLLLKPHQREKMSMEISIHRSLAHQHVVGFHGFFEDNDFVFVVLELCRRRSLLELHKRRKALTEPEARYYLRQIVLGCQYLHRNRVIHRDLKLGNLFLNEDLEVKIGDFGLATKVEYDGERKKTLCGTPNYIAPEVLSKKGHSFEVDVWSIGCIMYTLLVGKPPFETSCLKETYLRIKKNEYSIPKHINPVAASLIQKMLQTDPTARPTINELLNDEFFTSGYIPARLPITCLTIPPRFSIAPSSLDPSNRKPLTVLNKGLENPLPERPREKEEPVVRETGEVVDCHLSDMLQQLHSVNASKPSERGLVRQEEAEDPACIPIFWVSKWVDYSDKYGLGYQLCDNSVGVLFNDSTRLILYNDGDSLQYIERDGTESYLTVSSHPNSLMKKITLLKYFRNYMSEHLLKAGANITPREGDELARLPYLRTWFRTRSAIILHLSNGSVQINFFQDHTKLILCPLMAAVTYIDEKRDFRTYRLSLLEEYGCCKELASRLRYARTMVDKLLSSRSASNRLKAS
UniProt P68371, whole entry: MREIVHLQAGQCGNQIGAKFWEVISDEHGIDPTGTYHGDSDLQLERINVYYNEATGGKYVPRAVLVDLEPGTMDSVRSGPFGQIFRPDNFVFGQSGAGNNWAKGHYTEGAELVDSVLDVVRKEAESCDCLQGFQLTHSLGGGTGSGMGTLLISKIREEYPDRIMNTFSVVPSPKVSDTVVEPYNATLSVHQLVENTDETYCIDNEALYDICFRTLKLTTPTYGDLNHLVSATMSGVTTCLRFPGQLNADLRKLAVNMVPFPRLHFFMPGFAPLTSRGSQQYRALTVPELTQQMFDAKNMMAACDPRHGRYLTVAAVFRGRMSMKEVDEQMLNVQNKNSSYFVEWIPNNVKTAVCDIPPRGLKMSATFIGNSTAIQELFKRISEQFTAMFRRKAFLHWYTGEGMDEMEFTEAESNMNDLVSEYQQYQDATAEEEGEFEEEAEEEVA
UniProt P54277: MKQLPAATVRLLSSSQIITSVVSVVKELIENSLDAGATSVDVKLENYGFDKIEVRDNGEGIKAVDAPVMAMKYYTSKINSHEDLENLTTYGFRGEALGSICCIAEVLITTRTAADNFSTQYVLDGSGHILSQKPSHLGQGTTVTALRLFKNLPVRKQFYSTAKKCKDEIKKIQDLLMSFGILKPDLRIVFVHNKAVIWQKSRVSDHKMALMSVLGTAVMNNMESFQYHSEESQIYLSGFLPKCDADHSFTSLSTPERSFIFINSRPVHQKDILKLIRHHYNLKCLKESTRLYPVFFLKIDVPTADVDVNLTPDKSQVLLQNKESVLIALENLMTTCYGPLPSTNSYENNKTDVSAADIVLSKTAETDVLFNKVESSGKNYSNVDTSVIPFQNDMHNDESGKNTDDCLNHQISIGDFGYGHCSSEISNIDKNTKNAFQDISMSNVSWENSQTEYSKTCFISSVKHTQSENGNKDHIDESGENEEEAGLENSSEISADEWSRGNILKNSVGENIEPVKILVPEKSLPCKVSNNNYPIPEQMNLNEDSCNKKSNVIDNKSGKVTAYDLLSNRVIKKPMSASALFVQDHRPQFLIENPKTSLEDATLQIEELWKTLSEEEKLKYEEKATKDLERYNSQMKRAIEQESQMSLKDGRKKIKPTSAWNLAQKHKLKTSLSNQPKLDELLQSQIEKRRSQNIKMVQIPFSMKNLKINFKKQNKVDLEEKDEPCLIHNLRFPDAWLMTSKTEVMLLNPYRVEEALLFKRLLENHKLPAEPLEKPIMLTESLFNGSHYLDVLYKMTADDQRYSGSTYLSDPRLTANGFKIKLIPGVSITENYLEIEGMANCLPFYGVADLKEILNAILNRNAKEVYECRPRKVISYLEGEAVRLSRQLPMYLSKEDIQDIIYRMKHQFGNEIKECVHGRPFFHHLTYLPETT
UniProt P54920: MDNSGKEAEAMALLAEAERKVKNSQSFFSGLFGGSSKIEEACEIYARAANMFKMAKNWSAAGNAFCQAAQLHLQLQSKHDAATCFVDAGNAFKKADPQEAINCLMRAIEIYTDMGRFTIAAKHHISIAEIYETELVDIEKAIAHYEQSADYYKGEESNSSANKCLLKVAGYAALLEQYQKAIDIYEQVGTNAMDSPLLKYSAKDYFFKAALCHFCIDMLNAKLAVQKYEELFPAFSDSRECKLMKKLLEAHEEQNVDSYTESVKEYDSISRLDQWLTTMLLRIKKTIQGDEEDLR
UniProt P54105: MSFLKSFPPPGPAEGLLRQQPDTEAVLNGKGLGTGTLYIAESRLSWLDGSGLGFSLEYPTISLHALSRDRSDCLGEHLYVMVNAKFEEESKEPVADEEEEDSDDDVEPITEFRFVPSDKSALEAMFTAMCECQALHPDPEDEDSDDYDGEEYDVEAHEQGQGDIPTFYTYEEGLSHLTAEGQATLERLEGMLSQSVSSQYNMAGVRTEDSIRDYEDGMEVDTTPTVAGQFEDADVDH
UniProt P78347: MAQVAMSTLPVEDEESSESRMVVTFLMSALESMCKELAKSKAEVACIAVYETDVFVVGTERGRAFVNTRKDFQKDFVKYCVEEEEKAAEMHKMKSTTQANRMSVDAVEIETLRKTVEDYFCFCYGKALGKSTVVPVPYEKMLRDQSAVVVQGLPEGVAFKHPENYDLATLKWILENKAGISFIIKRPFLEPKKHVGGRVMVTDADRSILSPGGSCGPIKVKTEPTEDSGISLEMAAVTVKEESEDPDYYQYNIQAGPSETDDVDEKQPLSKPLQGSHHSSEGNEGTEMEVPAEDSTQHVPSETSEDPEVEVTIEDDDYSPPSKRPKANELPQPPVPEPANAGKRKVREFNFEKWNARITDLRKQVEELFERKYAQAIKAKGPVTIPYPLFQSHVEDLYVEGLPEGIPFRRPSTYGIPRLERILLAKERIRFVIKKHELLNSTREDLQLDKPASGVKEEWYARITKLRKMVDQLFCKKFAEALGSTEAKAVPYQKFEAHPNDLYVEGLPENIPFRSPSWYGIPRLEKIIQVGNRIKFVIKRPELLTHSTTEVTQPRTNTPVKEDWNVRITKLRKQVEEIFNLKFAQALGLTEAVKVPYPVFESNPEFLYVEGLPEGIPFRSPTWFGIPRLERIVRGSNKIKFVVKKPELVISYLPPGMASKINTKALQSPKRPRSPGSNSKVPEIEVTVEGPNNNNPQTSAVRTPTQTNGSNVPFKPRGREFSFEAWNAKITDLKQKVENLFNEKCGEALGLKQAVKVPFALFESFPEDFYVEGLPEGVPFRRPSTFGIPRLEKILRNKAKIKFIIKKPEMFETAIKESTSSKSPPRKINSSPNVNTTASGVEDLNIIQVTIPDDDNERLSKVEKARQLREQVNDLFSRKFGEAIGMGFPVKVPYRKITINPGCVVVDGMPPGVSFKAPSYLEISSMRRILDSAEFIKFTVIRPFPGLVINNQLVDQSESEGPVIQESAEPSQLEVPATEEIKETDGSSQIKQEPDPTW
UniProt Q00169: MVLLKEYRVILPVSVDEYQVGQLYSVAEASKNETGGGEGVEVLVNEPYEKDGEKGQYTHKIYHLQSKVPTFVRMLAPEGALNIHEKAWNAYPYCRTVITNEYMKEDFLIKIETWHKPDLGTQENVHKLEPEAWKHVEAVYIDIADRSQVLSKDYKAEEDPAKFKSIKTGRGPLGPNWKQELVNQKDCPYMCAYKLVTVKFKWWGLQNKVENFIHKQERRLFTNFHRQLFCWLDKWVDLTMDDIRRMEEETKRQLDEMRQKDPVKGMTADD
UniProt P61962: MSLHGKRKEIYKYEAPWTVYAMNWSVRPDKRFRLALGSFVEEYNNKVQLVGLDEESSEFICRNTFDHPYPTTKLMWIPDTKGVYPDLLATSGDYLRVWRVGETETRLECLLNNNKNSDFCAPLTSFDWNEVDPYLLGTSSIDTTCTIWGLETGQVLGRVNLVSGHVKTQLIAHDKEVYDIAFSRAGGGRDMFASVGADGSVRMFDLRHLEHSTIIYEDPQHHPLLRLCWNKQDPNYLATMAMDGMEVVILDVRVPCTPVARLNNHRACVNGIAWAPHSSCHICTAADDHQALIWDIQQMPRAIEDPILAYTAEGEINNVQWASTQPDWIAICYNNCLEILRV
UniProt P53701: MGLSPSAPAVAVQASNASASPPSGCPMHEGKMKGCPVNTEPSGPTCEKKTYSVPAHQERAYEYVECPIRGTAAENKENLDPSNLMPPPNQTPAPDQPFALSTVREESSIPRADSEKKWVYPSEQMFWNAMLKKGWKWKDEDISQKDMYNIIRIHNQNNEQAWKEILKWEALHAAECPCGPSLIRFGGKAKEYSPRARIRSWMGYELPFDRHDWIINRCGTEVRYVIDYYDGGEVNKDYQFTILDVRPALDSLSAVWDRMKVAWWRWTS
UniProt P60891: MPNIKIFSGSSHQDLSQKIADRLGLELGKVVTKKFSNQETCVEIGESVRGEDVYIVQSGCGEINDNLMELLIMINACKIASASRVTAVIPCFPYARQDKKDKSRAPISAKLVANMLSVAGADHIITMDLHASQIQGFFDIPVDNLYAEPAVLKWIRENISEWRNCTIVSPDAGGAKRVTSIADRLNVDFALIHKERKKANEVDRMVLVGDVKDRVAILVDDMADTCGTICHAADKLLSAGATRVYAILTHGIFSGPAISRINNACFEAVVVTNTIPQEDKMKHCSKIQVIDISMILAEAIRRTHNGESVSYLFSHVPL
UniProt P62310: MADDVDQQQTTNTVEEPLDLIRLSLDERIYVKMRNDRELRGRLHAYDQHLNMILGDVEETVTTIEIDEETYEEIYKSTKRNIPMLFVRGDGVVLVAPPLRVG
UniProt P61009: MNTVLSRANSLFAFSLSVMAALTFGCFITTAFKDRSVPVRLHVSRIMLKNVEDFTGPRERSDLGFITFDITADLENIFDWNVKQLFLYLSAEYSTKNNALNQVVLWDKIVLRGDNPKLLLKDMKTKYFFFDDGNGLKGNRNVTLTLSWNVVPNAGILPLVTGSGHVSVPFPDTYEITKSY
UniProt P78345: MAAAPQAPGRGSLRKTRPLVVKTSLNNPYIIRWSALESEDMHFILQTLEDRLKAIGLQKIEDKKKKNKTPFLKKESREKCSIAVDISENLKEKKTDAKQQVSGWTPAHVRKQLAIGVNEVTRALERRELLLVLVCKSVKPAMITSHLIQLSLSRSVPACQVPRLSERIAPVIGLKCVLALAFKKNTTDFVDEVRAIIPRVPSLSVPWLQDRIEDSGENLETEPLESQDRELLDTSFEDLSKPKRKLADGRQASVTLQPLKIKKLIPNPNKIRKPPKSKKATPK
UniProt P53794: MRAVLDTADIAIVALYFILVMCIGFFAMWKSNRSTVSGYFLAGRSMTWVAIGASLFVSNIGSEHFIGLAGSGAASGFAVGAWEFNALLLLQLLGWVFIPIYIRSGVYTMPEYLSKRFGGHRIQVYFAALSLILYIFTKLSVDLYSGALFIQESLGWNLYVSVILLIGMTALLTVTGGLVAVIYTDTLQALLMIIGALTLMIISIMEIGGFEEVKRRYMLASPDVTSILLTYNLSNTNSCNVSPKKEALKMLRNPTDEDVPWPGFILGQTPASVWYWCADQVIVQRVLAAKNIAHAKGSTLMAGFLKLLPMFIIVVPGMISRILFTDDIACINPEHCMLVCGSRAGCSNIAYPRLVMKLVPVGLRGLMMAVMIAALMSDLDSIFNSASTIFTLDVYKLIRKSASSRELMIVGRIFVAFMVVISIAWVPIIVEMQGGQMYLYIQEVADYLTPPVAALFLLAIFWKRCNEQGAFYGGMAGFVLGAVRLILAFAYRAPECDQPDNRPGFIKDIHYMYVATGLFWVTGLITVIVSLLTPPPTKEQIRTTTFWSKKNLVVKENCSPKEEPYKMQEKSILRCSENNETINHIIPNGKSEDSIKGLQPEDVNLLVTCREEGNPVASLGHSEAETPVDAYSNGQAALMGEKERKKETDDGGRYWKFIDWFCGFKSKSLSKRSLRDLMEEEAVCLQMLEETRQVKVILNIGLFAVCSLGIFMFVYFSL
UniProt P53801: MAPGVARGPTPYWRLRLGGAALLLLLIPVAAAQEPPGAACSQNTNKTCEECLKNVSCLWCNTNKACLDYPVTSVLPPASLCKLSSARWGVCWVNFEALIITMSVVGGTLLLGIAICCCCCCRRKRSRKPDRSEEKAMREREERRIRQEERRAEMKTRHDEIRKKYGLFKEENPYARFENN
UniProt P62699: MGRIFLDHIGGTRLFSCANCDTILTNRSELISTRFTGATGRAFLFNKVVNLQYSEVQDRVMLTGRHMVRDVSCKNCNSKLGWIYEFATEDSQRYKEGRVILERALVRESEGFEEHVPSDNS

Compound: Nc1ncnc2c1ncn2[C@@H]1O[C@H](COP(=O)(O)OP(=O)(O)OP(=O)(O)O)[C@@H](O)[C@H]1O [adenosine triphosphate]
Test: NP40-soluble protein abundance relative to vehicle (solubility fold change) (ratio); higher = more soluble protein in presence of ATP
Method in brief: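 Each value is a fold change relative to the detergent-processed vehicle, calculated per replicate from vsn-normalised intensities. Jurkat crude lysate received eight concentrations (0.1 to 10 mM) for 10 min at room temperature and 3 min at 37 °C, then was solubilised in 0.8% NP40 with benzonase (60 min, 4 °C). The ultracentrifuged supernatant was TMT-labelled and run by LC-MS/MS in three independent experiments.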

Target	NP40-soluble protein abundance (concentration: 1mM)	NP40-soluble protein abundance (concentration: 2mM)	NP40-soluble protein abundance (concentration: 4mM)	NP40-soluble protein abundance (concentration: 6mM)	NP40-soluble protein abundance (concentration: 8mM)	NP40-soluble protein abundance (concentration: 10mM)
UniProt P62805	0.852 ± 0.077	0.826 ± 0.06	0.835 ± 0.066	0.843 ± 0.081	0.861 ± 0.058	1.01 ± 0.17
UniProt P61224 and related entries	0.939 ± 0.12	0.96 ± 0.055	0.936 ± 0.061	1.01 ± 0.042	0.921 ± 0.048	0.9357 ± 0.0039
PLK1 (UniProt P53350)	0.941 ± 0.048	0.947 ± 0.055	0.976 ± 0.11	0.928 ± 0.037	1.05 ± 0.062	1.03 ± 0.023
UniProt P68371	1.02 ± 0.024	0.987 ± 0.06	0.908 ± 0.023	1.08 ± 0.069	0.922 ± 0.029	0.951 ± 0.056
UniProt P62195 and related entries	0.971 ± 0.026	0.912 ± 0.011	0.889 ± 0.01	0.885 ± 0.081	0.929 ± 0.054	0.89 ± 0.054
UniProt Q00537 and related entries	1.18 ± 0.024	1.26 ± 0.066	1.25 ± 0.044	1.29 ± 0.054	1.34 ± 0.16	1.36 ± 0.16
UniProt P54277 and related entries	1.25 ± 0.027	1.27 ± 0.075	1.35 ± 0.058	1.32 ± 0.08	1.31 ± 0.049	1.28 ± 0.05
UniProt P54920 and related entries	0.987 ± 0.09	0.977 ± 0.031	0.936 ± 0.034	0.955 ± 0.038	0.916 ± 0.019	0.874 ± 0.063
CLNS1A (UniProt P54105)	0.934 ± 0.1	0.933 ± 0.06	0.949 ± 0.054	0.954 ± 0.092	0.925 ± 0.03	0.854 ± 0.082
HSPA2 (UniProt P54652)	0.978 ± 0.097	0.896 ± 0.064	0.921 ± 0.042	0.958 ± 0.059	0.872 ± 0.066	0.9128 ± 0.0058
GTF2B (UniProt Q00403)	0.964 ± 0.018	0.98 ± 0.021	0.99 ± 0.035	0.959 ± 0.051	1.006 ± 0.009	1.01 ± 0.029
UniProt P78356	0.998 ± 0.033	1.01 ± 0.036	1.04 ± 0.034	1.05 ± 0.044	1.06 ± 0.047	1.04 ± 0.026
UniProt P78347 and related entries	0.977 ± 0.03	0.9556 ± 0.0091	0.949 ± 0.02	0.97 ± 0.016	1.02 ± 0.035	1.03 ± 0.034
PITPNA (UniProt Q00169)	0.98 ± 0.043	0.979 ± 0.051	0.955 ± 0.038	0.947 ± 0.085	0.949 ± 0.025	0.947 ± 0.048
UniProt P61962	1.1 ± 0.06	1.08 ± 0.054	1.07 ± 0.025	1.06 ± 0.063	1.15 ± 0.014	1.13 ± 0.068
HCCS (UniProt P53701)	1.02 ± 0.046	0.966 ± 0.041	0.947 ± 0.023	0.952 ± 0.053	0.957 ± 0.015	0.931 ± 0.041
UniProt P55327-2|P55327-4	0.869 ± 0.2	0.848 ± 0.14	0.845 ± 0.13	0.815 ± 0.17	0.794 ± 0.086	0.781 ± 0.18
UniProt P60891	1.08 ± 0.13	0.992 ± 0.052	0.954 ± 0.013	0.888 ± 0.029	0.985 ± 0.074	0.97 ± 0.065
UniProt P60866 and related entries	0.877 ± 0.029	0.829 ± 0.08	0.767 ± 0.092	0.775 ± 0.1	0.671 ± 0.1	0.751 ± 0.082
RPS27A (UniProt P62979)	0.813 ± 0.14	0.803 ± 0.17	0.747 ± 0.16	0.758 ± 0.19	0.647 ± 0.12	0.767 ± 0.14
UniProt P62310	0.967 ± 0.046	0.94 ± 0.016	0.908 ± 0.034	1.003 ± 0.0085	0.9089 ± 0.0043	0.889 ± 0.019
UniProt P61009	0.99 ± 0.05	1.01 ± 0.069	0.973 ± 0.031	0.933 ± 0.085	0.916 ± 0.035	0.978 ± 0.065
RPP38 (UniProt P78345)	0.96 ± 0.065	0.987 ± 0.037	0.998 ± 0.034	0.97 ± 0.09	0.995 ± 0.061	0.981 ± 0.046
EIF5 (UniProt P55010)	1 ± 0.057	0.99 ± 0.028	0.962 ± 0.025	1.03 ± 0.035	0.964 ± 0.015	0.963 ± 0.032
UniProt P78527	1.21 ± 0.15	1.15 ± 0.097	1.15 ± 0.06	1.07 ± 0.08	1.25 ± 0.03	1.17 ± 0.062
SLC5A3 (UniProt P53794)	0.992 ± 0.11	0.946 ± 0.081	1.09 ± 0.22	1.01 ± 0.048	0.952 ± 0.073	1.04 ± 0.042
PTTG1IP (UniProt P53801)	0.932 ± 0.066	0.915 ± 0.06	0.925 ± 0.021	1.04 ± 0.09	0.912 ± 0.058	0.888 ± 0.11
CD81 (UniProt P60033)	0.958 ± 0.093	0.933 ± 0.079	0.907 ± 0.068	0.887 ± 0.079	0.903 ± 0.091	0.868 ± 0.073
YPEL5 (UniProt P62699)	0.955 ± 0.074	0.964 ± 0.046	0.914 ± 0.059	0.832 ± 0.12	0.908 ± 0.12	0.952 ± 0.091

Record cards, as listed above:
UniProt P60891 as listed: NP40-soluble protein abundance (concentration: 1mM): 1.08 ± 0.13; NP40-soluble protein abundance (concentration: 2mM): 0.992 ± 0.052; NP40-soluble protein abundance (concentration: 4mM): 0.954 ± 0.013; NP40-soluble protein abundance (concentration: 6mM): 0.888 ± 0.029; NP40-soluble protein abundance (concentration: 8mM): 0.985 ± 0.074; NP40-soluble protein abundance (concentration: 10mM): 0.97 ± 0.065
RPP38 (UniProt P78345) as listed: NP40-soluble protein abundance (concentration: 1mM): 0.96 ± 0.065; NP40-soluble protein abundance (concentration: 2mM): 0.987 ± 0.037; NP40-soluble protein abundance (concentration: 4mM): 0.998 ± 0.034; NP40-soluble protein abundance (concentration: 6mM): 0.97 ± 0.09; NP40-soluble protein abundance (concentration: 8mM): 0.995 ± 0.061; NP40-soluble protein abundance (concentration: 10mM): 0.981 ± 0.046
